Data: PubChem BioAssay AID651664 (NMMLSC, 2012)
The campaign covered roughly 1,800 compounds. Fewer than 10 were called active.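 How the source made its calls: active means inhibition of granule release above a set limit; inactive means the rest.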 The list shows a part of the results.

test: inhibitors of lytic granule exocytosis, flow cytometry, TALL-104 cells, validation set (AID 651664); conditions: TALL-104 LAMP-1 externalization, at 15.2 µM, hits give high values, stimulated with thapsigargin and PMA

inhibition, inactive:
NC(=O)SCC(=O)Nc1cccc(Cl)c1 -0.9%, COCCn1c(N)c(NCc2ccccc2)c(=O)n(CC(=O)Nc2cc(C)ccc2C)c1=O -2.7%, CCN(CC)C(=O)N1CCN(C(=O)c2ccc(C)cn2)CC1 3%, CC(C)CC(=O)N1CCN(S(C)(=O)=O)CC1 -0.2%, CCOC(=O)C(CC)(CC)C(=O)/C=C/c1cccc(Br)c1 -2.2%, CCC(=O)Oc1cccc(C(=O)Nc2ccc(-c3nnc(-c4ccco4)o3)cc2)c1 -1.3%, Cc1cccc(C(=O)NN2C(=O)C3C(c4ccccc4)C=CC(c4ccccc4)C3C2=O)c1 (configuration not stated) 0.2%, Cc1cc(NC(=O)COC(=O)C2CCN(S(=O)(=O)c3c(Cl)cccc3Cl)CC2)no1 -3.4%, N#Cc1nc(-c2ccco2)oc1N1CCN(c2ccccc2)CC1 11.5%, Nc1c(-c2ccccc2)cnn1-c1cccc(C(F)(F)F)c1 1.5%, CCCCSC(=S)N(C)C1CCS(=O)(=O)C1 (configuration not stated) -0.4%, CCCc1[nH]nc2c1C(c1cccnc1)C(C#N)=C(N)O2 (configuration not stated) 2.5%, CCN(CC)C(=S)Sc1c(-c2ccccc2)c2cc(Cl)ccc2[nH]c1=O 2.1%, c1ccc(OCCCc2nc(-c3ccccn3)no2)cc1 -0.5%, Cc1ccc(Cl)cc1NC(=O)CSC(N)=O -3%, FC(F)(F)c1cccc(N2CCc3cn[nH]c32)c1 -0.1%, CCOC(=O)C1CCN(S(=O)(=O)c2cccc(-c3csc(C)n3)c2)CC1 -0.2%, Cc1ccc2c(c1Br)/C(=N/N1C(=O)c3ccccc3C1=O)C(=O)N2 -3.6%, O=S(=O)(NC1c2cccc3cccc(c23)C1N1CCN(CCO)CC1)c1ccccc1 (configuration not stated) -1.3%, N#CC1=C(N)N(c2ccc(Oc3ccccc3)cc2)C(=O)C1 1.8%, CCOC(=O)c1cc(-c2ccccc2)sc1NC(=O)CN1C(=O)c2ccccc2C1=O -0.7%, O=C(CSc1nnc(-c2cccs2)n1-c1ccccc1)Nc1ccccc1 22.8%, CCN1C(=O)/C(=C/c2ccc(C)s2)SC1=Nc1ccc(OC)cc1 3.3%, c1csc(-c2cn3c(n2)SCC3)c1 0.4%, COc1ccc(S(=O)(=O)N(C)CC(=O)Nc2ccccc2C(F)(F)F)cc1OC -1.6%, CCN(CC)S(=O)(=O)c1ccc2c(c1)nc(CCC(=O)Nc1cccc(C(F)(F)F)c1)n2CC -1.5%, CC1CCN(S(=O)(=O)c2ccc3c(c2)C(=NO)c2cc(S(=O)(=O)N4CCC(C)CC4)ccc2-3)CC1 -3.3%, O=c1c(Cc2ccc(F)cc2)c(O)ccn1C1CCCCC1 0.2%, CCC1c2ccc(C)n2CCN1C(=O)Nc1ccccc1OC (configuration not stated) 2.3%, Cc1onc(-c2c(F)cccc2Cl)c1C(=O)NCc1ccco1 4.1%, Cc1ccc(-c2nnc(-c3ccc(NC(=O)c4ccco4)cc3)o2)cc1 -3.9%, Cc1cc2nc(C)n(CCCNC(=O)Nc3ccc(C#N)cc3)c2cc1C 3.9%, CC(C)(C)n1nnnc1C(c1cccnc1)N(Cc1ccccc1)Cc1ccco1 (configuration not stated) -3.9%, O=S(=O)(/N=C(/Nc1cccc2ccccc12)c1ccccc1)c1cccs1 -5.3%, O=C(Nc1ccccc1)c1ccn[nH]1 3%, CC(C)=CCCC1=CCC2C(=O)NNC(=O)C2C1 (configuration not stated) 0.5%, O=C(CCSc1nc(-c2ccco2)cc(C(F)(F)F)n1)NCC1CCCO1 (configuration not stated) 0.1%, CCOC(=O)C1CCN(C(=O)CSc2n[nH]c(=O)[nH]c2=O)CC1 4.9%, CCN(CC)c1ccc(-c2nnc(SCC(=O)Nc3ccccc3C#N)n2-c2ccccc2)cc1 1.5%, Cc1ccc(OCC(=O)Nc2ccc(-c3nnc(-c4ccco4)o3)cc2)cc1 -1.4%, Cc1[nH]c(=O)[nH]c(=O)c1CSc1nnc([C@@H](NC(=O)OC(C)(C)C)C(C)C)o1 -2.5%, COc1ccc(/C=C(/C#N)C(=O)Nc2cccc(C)c2C)cc1C(=O)O 3.3%, Nc1nc(N)nc(-c2ccccc2O)n1 -1.6%, Cc1ccc2cc(CN(CCN3CCOCC3)C(=O)NCc3ccccc3)c(=O)[nH]c2c1C 9%, O=C(c1ccccc1F)N1CCN(Cc2ccccc2F)CC1 0.5%, CCCC(=O)Nc1ccc(Sc2ccc([N+](=O)[O-])cc2)cc1 -1.4%, O=C(Nc1ccc(N2CCN(C(=O)c3ccccc3)CC2)c(Cl)c1)c1ccco1 1.5%, COc1cc(C2c3c(oc4ccccc4c3=O)C(=O)N2Cc2ccco2)ccc1O (configuration not stated) -0.5%, Cc1cc(=O)n(CC(C)O)c(O)c1C#N (configuration not stated) -5%, FC(F)(F)c1cccc(N2CCN(C(=S)NC3CCCC3)CC2)c1 -2.1%, CS(=O)(=O)N(CCc1ccccc1)CC(=O)NCc1ccco1 -1.1%, COc1ccc(C(=O)Nc2ccc(Cl)c(Cl)c2)c(OC)n1 -0.6%, O=C(N/N=C/c1ccncc1)c1cc([N+](=O)[O-])cc([N+](=O)[O-])c1O 6%, CCS(=O)(=O)N1CCCC(C(=O)NCc2cccnc2)C1 (configuration not stated) -0.6%, Cc1cccc(C)c1OCC(=O)Nc1oc(-c2ccccc2)c(-c2ccccc2)c1C#N -6.1%, NC(=O)c1ccc2c(c1)OCCO2 1.5%, CCOn1c(=O)c(C)[n+]([O-])c2ccccc21 2.6%, O=C(COc1cccc(NC(=O)c2cccc([N+](=O)[O-])c2)c1)c1ccc(F)cc1 0.9%, O=C(Nc1ccccc1)c1ccc(CN2CCC(Cc3ccccc3)CC2)cc1 1.3%, CCc1c(C)nc2ncnn2c1N1CCCC(C(=O)Nc2ccc(NC(C)=O)cc2)C1 (configuration not stated) 7.9%, CC1(C)CC(N2CCC(=O)N(C3CC(C)(C)NC(C)(C)C3)C2)CC(C)(C)N1 1.6%, CCc1cccc(C)c1NC(=O)C(c1ccc(O)cc1)N1CCC1=O (configuration not stated) -1.1%, CCOC(=O)c1ccc(OCC(=O)c2ccc(O)cc2O)cc1 3.5%, Cn1c(C(=O)N2CCOCC2)cnc1Sc1ncc(C(F)(F)F)cc1Cl 0.3%, O=C(O)C1C2CCC(C2)C1C(=O)NCc1ccco1 (configuration not stated) 2.1%, COc1ccc2c(c1)[nH]c1c(=O)n(Cc3ccco3)cnc12 -0.1%, CCC(C)c1ccc(NC(=S)Nc2ccc(OC)c(OC)c2)cc1 (configuration not stated) -0.5%, CC(C)NC(=O)c1cnc(Sc2ncc(C(F)(F)F)cc2Cl)n1C -2.7%, Cc1ccc(S(=O)(=O)N/N=C/c2ccc(OCC(=O)NC(C)C)cc2)cc1 4.1%, CCn1c(SC)nnc1-c1sc2cc(Cl)ccc2c1Cl -1%, CCC(C(=O)O)n1c(C(F)(F)F)nc2ccccc21 (configuration not stated) -2.9%, C/C(=N\NC(=O)c1cccc(Cl)c1)c1cccc(NC(=O)c2ccco2)c1 -1.8%, CCOC(=O)N1CCC(NC(=O)Cn2cccc2C(=O)c2ccccc2)CC1 1.3%, CCCCc1cc(=O)oc2c(CN(CC)CC)c(O)c(Cl)cc12 0.1%, O=C(NCc1ccccc1)c1cc2ccccc2o1 2%, Cc1ccc(Cn2c(S(=O)(=O)O)nc3ccccc32)cc1 0.1%, Cc1cc(C(=O)CN2C(=O)NC3(CCCc4ccccc43)C2=O)c(C)n1Cc1ccccc1 (configuration not stated) -2.6%, CCn1nnc(-c2ccccc2NC(=O)c2cnccn2)n1 -1.3%, S=P(c1ccc(N2CCOCC2)cc1N1CCOCC1)(N1CCOCC1)N1CCOCC1 4.1%, COc1ccccc1C(=O)Nc1ccc(NC(=O)c2ccco2)c(C)c1 0.4%, Clc1ccc(/C=N/NC(=Nc2ccccc2)c2ccccn2)c(Cl)c1 1.5%, O=C1CN=C(Nc2ccc(Cl)cc2)N1c1ccccc1 6.5%, COc1ccc(S(=O)(=O)NCCSCc2ccco2)cc1 -0.9%, CCn1ncc(CNC(=O)CCCSc2nc(-c3ccco3)cc(C(F)(F)F)n2)c1C -2.1%, COc1ccccc1C1/C(=C(/O)c2ccc(C)cc2)C(=O)C(=O)N1CC(C)O (configuration not stated) 0.7%, CCCNC(=O)c1ccccc1NC(=O)c1ccc(CSc2ccccc2)cc1 -0.5%, O=C(Nc1ccc(N2CCCC2)c(Cl)c1)c1cccnc1 -0.9%, CCOC(=O)Nc1cc(C(=O)OCC)c(C)nc1C -3%, O=C(Cc1cc(=O)[nH][nH]1)N/N=C/C(Cl)=C/c1ccccc1 -4.6%, O=C(O)CC(NCc1ccco1)C(=O)OCCc1ccccc1 (configuration not stated) 1.2%, Cc1ccc(-c2nc3cc(N)ccc3o2)c(C)c1 1.9%, COc1cc(-c2nnc(-c3cccs3)o2)cc(OC)c1OC 3.1%, CC(C)(C)OC(=O)N1CCCC1C(=O)NCCc1ccccc1 (configuration not stated) 0.7%, CC(C)CN(CC(C)C)c1nc(N)c(C#N)c(CC#N)c1C#N -0.1%, CCOc1ccc(C2NC(=O)c3ccccc3O2)cc1 (configuration not stated) 1.9%, COc1ccc(CCNC(=O)C2CCC(CNc3c(N4CCCC4)c(=O)c3=O)CC2)cc1OC (configuration not stated) -2.4%, Cc1ccc(S(=O)(=O)N2CCOCC2)cc1C(=O)OCC(=O)N1CCc2ccccc2C1 -0.4%
